No constants are given. Whether binding was seen depends on the method and setting. Some results given as binding are weak or reduced against the parent protein; the word gives no strength.

The chains behind the UniProt entries cited, without tags or fusion partners. Residues count along the entry.
UniProt P10721, residues 26-520: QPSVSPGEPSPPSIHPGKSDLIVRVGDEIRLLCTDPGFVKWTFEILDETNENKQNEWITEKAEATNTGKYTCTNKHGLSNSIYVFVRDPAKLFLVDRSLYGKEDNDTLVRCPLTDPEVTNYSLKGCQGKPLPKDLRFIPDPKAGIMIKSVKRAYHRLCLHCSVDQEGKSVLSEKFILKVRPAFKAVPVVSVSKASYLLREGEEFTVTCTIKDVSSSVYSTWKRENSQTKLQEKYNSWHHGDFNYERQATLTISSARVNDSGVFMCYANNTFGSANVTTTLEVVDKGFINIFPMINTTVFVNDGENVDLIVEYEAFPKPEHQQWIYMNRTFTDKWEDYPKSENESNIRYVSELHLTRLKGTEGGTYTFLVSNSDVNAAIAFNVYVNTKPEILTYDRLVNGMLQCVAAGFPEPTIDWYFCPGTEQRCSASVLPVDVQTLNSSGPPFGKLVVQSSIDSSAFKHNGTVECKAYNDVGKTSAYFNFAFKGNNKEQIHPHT

For one molecule, binding results are on record in patent US20210122822A1 (FORTY SEVEN, published 2021).

In test [1] the target is T1, human c-Kit-Fc fusion protein (human, UniProt P10721 26-520, limits assumed).
T1 construct: not shown: Fc part of the fusion protein
The experiment in a line: ELISA, coated human c-Kit-Fc, FIG. 2D (members named at paragraph 117). How it is done:
(§1) Antigen binding activity measurement by ELISA. 96-well plates (Nunc, Roskilde, Denmark) were coated with 1 ug/ml human c-Kit-Fc fusion protein in phosphate-buffered saline (PBS) for 16 hr at 4° C. After blocking for 1 hr with 0.4% BSA in PBS at room temperature, anti-c-Kit antibodies were added in 1/3 sequential dilutions, and incubated for 1 hr at room temperature. Plates were subsequently washed three times and incubated with HRP-conjugated goat anti-human kappa-specific antibody for 1 hr at room temperature. After washing, plates were developed with TMB. The reaction was stopped with 2M […], and OD was measured at 450 nm.

Test [2] has as its target T1, human c-Kit-Fc fusion protein. Put plainly: ELISA, coated human c-Kit-Fc, against AMG191. How it is done:
as §1

B1: AF-1-1 (antibody, V domains shown)
VH: QVQLVQSGAEVKKPGASVKVSCKASGYTFTSYNMHWVRQAPGQGLEWMGVIYSGNGDTSYAQKFQGRVTITADKSTSTAYMELSSLRSEDTAVYYCARERDTRFGNWGQGTLVTVSS
VL: DIVMTQSPDSLAVSLGERATINCRASDSVDIYGNSFMHWYQQKPGQPPKLLIYLASNLESGVPDRFSGSGSGTDFTLTISSLQAEDVAVYYCQQNNEDPYTFGGGTKVEIK
Consider B1, for which the binding entry in test [1] and in test [2] was “binds” each time.
